Measurements: doi:10.1101/445148
No constants are given. Whether binding was seen depends on the method and setting. Binding seen in cells or lysates may run through a third protein. Here binding means that the protein was enriched with, or labelled near, the bait; the list need not be complete. For part of these data: No binding means not detected with the bait.

Chains of the proteins cited; added tags and fusions are not shown.
UniProt Q9H8M2: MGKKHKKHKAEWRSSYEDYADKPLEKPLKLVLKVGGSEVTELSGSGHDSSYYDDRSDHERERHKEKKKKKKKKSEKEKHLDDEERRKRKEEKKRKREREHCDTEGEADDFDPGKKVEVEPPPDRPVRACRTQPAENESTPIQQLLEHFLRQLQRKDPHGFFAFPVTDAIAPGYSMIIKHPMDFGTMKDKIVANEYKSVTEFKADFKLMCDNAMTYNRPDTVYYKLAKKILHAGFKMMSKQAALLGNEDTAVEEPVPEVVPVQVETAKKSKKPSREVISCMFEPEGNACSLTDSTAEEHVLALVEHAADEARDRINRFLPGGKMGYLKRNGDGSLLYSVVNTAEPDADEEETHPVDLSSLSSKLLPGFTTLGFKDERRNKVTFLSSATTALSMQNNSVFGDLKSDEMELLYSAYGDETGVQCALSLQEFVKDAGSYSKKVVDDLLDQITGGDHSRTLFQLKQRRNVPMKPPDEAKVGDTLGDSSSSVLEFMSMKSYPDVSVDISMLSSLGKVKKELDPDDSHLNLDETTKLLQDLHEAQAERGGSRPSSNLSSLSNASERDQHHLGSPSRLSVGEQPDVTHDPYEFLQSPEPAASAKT
UniProt Q96GM5: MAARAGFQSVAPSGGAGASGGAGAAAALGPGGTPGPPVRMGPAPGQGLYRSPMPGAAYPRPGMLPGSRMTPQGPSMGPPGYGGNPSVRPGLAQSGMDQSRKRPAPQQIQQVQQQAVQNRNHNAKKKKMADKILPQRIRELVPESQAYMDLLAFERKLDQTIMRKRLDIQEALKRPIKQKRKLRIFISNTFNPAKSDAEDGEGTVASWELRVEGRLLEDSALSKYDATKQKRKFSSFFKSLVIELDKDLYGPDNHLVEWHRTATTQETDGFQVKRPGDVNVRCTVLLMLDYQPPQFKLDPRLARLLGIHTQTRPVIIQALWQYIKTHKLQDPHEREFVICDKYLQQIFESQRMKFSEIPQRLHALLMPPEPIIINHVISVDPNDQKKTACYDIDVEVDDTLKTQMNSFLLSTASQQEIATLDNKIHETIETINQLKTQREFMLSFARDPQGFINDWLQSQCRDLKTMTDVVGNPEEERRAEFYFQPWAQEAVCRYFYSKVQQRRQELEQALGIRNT
UniProt Q92922: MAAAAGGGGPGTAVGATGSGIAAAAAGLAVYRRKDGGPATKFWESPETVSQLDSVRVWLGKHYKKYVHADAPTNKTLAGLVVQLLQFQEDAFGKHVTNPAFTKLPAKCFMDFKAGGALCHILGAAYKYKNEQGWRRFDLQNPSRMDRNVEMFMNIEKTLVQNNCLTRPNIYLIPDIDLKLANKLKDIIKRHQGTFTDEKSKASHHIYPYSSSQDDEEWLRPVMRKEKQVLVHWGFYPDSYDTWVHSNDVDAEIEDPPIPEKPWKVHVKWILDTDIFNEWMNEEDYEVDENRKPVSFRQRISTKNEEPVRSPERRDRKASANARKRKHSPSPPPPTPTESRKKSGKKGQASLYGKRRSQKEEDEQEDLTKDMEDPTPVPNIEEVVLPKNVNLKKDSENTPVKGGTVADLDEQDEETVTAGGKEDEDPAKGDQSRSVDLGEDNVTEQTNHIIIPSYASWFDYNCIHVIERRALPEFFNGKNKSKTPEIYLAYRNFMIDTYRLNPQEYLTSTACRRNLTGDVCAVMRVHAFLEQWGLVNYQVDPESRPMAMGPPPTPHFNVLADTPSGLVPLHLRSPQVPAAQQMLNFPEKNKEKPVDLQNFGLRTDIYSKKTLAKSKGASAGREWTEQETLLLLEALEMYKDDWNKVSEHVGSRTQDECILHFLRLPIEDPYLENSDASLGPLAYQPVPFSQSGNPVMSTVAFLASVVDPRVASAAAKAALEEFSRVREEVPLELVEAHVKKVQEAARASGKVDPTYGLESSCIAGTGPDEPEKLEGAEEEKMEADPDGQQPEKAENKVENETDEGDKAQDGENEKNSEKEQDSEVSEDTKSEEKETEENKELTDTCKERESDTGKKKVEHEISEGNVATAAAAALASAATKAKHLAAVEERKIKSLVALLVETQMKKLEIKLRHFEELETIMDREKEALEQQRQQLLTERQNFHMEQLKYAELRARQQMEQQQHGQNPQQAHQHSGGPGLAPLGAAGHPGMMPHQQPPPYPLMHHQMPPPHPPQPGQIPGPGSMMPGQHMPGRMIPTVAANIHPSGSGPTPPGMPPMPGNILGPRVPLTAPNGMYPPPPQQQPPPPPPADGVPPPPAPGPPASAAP
UniProt Q9NZM4: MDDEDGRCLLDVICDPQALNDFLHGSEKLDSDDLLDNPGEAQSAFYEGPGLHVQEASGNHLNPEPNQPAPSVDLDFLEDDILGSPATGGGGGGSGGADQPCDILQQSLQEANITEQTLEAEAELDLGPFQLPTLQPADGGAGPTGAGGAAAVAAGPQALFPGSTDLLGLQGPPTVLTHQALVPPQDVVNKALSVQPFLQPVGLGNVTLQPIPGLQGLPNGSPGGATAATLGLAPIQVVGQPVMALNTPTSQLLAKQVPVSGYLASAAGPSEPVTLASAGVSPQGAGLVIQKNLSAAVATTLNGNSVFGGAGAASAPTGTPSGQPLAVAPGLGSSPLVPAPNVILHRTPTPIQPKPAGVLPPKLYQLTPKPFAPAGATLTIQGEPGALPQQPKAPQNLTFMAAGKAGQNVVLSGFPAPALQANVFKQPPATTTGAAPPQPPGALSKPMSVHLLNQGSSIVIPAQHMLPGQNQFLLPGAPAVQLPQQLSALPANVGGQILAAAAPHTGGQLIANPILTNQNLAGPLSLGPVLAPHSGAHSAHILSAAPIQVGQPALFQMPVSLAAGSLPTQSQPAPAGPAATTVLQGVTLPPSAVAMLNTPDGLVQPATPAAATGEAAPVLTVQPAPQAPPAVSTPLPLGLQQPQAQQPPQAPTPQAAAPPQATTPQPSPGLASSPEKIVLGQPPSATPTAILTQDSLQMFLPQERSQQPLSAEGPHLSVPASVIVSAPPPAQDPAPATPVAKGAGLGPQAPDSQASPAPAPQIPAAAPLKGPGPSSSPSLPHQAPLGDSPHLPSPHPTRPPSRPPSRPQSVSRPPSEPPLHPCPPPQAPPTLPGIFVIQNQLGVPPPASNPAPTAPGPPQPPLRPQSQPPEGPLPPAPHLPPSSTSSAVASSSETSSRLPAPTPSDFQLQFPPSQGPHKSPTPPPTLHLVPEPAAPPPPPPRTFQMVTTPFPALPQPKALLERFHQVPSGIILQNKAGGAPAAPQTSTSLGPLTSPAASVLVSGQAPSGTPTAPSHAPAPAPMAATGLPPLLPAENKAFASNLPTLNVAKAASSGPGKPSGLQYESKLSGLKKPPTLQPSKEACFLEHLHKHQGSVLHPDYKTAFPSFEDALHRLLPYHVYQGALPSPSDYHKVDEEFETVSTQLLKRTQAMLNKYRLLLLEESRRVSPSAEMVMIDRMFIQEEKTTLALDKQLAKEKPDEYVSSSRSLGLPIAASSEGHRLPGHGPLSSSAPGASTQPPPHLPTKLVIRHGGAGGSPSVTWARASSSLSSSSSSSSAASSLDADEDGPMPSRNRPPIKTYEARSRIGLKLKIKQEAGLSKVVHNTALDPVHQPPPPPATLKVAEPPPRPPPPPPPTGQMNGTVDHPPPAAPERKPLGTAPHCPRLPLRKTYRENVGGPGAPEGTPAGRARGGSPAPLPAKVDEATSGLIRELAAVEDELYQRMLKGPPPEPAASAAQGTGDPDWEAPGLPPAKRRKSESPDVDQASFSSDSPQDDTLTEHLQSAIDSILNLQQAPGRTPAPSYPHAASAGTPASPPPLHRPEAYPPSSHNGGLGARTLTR
UniProt O00268: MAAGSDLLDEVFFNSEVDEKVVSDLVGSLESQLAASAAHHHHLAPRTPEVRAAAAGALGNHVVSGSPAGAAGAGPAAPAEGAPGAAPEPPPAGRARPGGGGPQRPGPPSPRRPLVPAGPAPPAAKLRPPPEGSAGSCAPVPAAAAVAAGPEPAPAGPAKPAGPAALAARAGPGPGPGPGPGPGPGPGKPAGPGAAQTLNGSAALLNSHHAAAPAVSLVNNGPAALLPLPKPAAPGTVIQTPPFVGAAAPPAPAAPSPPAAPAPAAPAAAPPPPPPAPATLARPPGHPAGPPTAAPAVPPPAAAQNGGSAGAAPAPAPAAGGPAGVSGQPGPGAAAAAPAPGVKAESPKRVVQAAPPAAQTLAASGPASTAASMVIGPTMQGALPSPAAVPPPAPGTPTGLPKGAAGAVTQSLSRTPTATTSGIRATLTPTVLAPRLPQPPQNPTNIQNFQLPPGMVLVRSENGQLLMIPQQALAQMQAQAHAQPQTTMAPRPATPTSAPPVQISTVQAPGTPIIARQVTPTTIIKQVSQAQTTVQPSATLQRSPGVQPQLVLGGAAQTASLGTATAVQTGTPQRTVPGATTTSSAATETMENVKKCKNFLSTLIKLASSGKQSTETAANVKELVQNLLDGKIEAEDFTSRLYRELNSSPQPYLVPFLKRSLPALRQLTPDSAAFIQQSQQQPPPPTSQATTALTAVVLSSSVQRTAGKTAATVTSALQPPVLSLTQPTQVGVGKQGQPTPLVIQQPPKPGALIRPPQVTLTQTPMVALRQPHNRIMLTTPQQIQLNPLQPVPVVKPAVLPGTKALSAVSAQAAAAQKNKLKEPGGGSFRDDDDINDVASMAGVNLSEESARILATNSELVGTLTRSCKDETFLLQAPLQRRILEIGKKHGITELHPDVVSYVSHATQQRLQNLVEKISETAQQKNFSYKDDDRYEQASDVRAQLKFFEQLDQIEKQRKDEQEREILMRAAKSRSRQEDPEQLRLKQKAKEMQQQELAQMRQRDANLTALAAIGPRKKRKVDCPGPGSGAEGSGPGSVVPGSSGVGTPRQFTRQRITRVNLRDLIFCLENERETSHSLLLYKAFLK
UniProt P49848: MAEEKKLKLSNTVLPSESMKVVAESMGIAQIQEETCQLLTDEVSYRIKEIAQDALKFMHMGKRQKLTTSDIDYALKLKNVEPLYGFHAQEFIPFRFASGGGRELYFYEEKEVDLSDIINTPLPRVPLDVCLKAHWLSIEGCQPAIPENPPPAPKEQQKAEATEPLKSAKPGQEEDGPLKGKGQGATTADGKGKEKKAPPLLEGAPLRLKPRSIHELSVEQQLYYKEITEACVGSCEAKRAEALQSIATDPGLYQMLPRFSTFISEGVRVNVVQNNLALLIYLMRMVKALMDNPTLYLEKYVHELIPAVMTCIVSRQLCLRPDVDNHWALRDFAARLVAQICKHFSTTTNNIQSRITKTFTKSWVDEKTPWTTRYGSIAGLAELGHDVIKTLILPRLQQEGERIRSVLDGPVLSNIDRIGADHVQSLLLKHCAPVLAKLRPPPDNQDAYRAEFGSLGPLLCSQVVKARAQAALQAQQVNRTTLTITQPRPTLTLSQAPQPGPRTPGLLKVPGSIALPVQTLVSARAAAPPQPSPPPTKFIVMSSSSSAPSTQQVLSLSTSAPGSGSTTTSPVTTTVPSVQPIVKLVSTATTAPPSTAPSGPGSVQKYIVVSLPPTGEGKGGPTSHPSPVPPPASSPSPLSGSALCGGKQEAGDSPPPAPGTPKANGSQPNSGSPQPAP
UniProt Q92785: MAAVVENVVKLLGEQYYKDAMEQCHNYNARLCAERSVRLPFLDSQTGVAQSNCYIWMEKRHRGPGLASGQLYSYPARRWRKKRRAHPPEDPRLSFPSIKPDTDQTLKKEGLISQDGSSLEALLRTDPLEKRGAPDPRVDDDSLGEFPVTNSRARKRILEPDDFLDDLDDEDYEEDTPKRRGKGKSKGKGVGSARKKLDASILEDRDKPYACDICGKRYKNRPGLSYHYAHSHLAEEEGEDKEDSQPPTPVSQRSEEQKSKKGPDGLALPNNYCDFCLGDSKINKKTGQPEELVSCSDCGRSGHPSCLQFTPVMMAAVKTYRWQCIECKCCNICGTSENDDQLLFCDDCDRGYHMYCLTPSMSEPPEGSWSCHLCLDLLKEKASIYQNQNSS
UniProt Q969G3: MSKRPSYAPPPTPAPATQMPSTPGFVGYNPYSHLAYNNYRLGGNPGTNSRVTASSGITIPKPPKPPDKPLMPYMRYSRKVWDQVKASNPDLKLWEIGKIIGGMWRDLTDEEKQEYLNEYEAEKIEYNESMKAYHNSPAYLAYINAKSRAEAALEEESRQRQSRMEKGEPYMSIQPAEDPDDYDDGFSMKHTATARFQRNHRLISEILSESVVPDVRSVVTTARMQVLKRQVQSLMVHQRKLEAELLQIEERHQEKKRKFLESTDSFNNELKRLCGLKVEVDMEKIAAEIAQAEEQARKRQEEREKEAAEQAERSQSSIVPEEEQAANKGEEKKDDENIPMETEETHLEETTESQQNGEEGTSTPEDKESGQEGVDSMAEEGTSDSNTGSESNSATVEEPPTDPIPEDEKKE

Assays:
Assay in all cases: affinity purification with mass spectrometry
[1] = biological target: GFP-tagged GLTSCR1L, full length (UniProt Q6AI39)
[2] = biological target: GFP-tagged BRD9 (UniProt Q9H8M2)
[3] = biological target: GFP-tagged SMARCD1 (BAF60a) (UniProt Q96GM5)
[4] = biological target: GFP-tagged SMARCC1 (BAF155) (UniProt Q92922)
[5] = biological target: GFP-tagged GLTSCR1L lacking the GiBAF-domain (UniProt Q6AI39)

Row | Substance | binding [1] | further results
1 | BRD9 (from UniProt Q9H8M2 1-597) | binds | 
2 | GLTSCR1 (from UniProt Q9NZM4 1-1560) | no binding | binding [2]: binds; binding [3]: binds; binding [4]: binds
3 | GLTSCR1L (from UniProt Q6AI39 1-1079) |  | binding [2]: binds; binding [3]: binds; binding [4]: binds
4 | SMARCA4 (BRG1) (from UniProt P51532 1-1647) | binds | 
5 | SMARCD1 (BAF60a) (from UniProt Q96GM5 1-515) | binds | 
6 | TAF4 (from UniProt O00268 1-1085) |  | binding [5]: binds
7 | TAF6 (from UniProt P49848 1-677) |  | binding [5]: binds

More lines, main results first:

Row | binding [1] | Substance | further results
8 | binds | BCL7C (from UniProt Q8WUZ0 1-217) | 
9 | no binding | DPF1 (BAF45B) (from UniProt Q92782 1-387) | 
10 | no binding | DPF2 (from UniProt Q92785 1-391) | 
11 | binds | SMARCC1 (BAF155) (from UniProt Q92922 1-1105) | 
12 | no binding | SMARCE1 (BAF57) (from UniProt Q969G3 1-411) | 
13 | binds | SS18 (from UniProt Q15532 1-418) | 
